Over roughly 33,000 sequences, “E-score (-0.5 to 0.5)” has its median near -0.0059; the highest 2% begin near 0.26. Some of the results follow.
The sequences below were run against T1, Cin5 (UniProt P40917) (assay: PBM E-score (8-mer binding enrichment) (E-score (-0.5 to 0.5)); higher = stronger / more preferred TF binding). Conditions: protein concentration: 100 nM; construct: GST-full length.
T1 sequence: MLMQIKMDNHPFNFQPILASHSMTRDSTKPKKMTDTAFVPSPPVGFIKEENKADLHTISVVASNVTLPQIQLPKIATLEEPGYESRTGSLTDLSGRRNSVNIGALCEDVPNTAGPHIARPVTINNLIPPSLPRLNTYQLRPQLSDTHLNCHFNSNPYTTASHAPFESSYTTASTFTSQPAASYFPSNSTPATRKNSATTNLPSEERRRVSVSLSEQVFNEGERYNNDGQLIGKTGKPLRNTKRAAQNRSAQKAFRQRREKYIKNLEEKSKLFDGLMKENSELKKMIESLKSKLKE
Procedure, shortened: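 Masliner-normalised scans of fluorescent anti-GST signal were the basis for scoring. That signal came from GST-tagged yeast transcription factors applied at about 100-200 nM to double-stranded universal all-10-mer Agilent arrays on fresh or once-stripped slides. Each ungapped eight-base word, pooled with its reverse complement, received an E-score from the Universal PBM Analysis Suite.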

Sequence	PBM E-score
CCAACGGC	-0.239
CGGATTAG	0.0848
TCCGCAAA	-0.0545
GCGGCTGA	0.042
AACGTCCA	-0.0499
AAGATCTA	-0.12
CCCTATAC	-0.159
CCCGGTGC	-0.189
ATTGGCGG	-0.0494
CGGAAGCA	0.131
ACCCCAAG	0.155
ATCGGACA	-0.0562
GACCTTAC	-0.101
CGTGAATA	0.117
AAGTACCC	-0.088
CATATATC	0.102
ACTCGTAA	0.234
CCTGTTAG	0.0713
ATCTGGCG	-0.0447
GAGGCGGA	-0.27
CCAACAGC	-0.0871
CCAGACAG	-0.153
TGGTGACA	0.059
ATCGCGAT	0.188
CGCTGGTC	-0.282

Sequence	PBM E-score
ATCTCTGG	-0.102
AGGTGTAA	0.149
CAAAGTGC	-0.0856
GATCCTAC	0.125
ACTCCCCT	-0.121
CGCCACAA	0.057
TCGCCACA	0.0301
CGTGATTC	-0.0445
ACGGGGGC	-0.445
CCTTTGAA	-0.0763
CATAGTAA	0.279
CTGTGGCA	-0.117
TAGATCCA	-0.00386
GGGGCCGA	-0.241
ACTATCAC	-0.0106
AAGGTACT	0.0255
AAGAAGAC	-0.00466
AACCCACA	0.0403
CCCGATCA	-0.217
CAGAATTC	0.0317
CACAGTGG	-0.111
GGACCGAC	-0.0152
GGGATAGA	-0.165
GATGTGCC	-0.144
GACCTGGC	-0.0791

Sequence	PBM E-score
AACATGGA	0.0225
AGTAACGG	0.0103
GGGATCAC	-0.129
CGGCCCTC	-0.346
AGGAGTAT	0.00924
CCGATAGC	-0.0986
AGATAGCC	-0.189
CGCAGACC	-0.296
ATCTTCTG	0.0442
CCCGACGC	-0.196
TACCCATA	0.0256
GCTAGCAC	-0.125
GGGTGTGA	-0.168
CCTCCGCA	-0.235
CATCCATA	0.0577
CACAGGAA	0.0493
GCATTGAC	-0.131
ACAATCGG	-0.0313
AACACGAC	-0.091
GGTGTTAC	-0.0664
CCACCTCA	0.0455
ACTTAGCA	-0.158
AATCTCAA	0.184
GAGCTTCC	0.148
GCTCCTCC	-0.323

Sequence	PBM E-score
CACCGCAA	0.0561
AGACAAAA	-0.0833
ATGCTGGA	-0.0155
GCAGCGGA	0.142
AAGTGACA	0.156
GCACTCGC	-0.105
ACTTTTTC	-0.0317
CAGCCTCA	-0.115
AAAATAGC	-0.0291
AGTAACTG	0.0066
ACGGACAA	0.22
AGCAAACT	0.107
CGTGTTGC	-0.119
CGATCGCG	0.156
CGGTTCTC	-0.217
CCGCTACG	-0.274
ACCTGTTG	-0.0113
GAGGCACC	-0.259
CAAGGGGC	-0.0283
AAGACGCG	-0.0284
ACACAATG	0.159
ACATCCGA	-0.0426
TAATGACA	0.237
CACTTATC	0.0905
ACTGGTAG	-0.045

Sequence	PBM E-score
CAATTTAA	0.159
CTGGGCAA	-0.00747
ACGACTTC	-0.12
GGCGTACA	-0.182
ATATTCAC	0.196
CCACGTCC	-0.185
TCAGTTAA	0.0587
ACTGCATG	0.0819
TTCAAAAA	0.0429
TAAGCTTA	0.372
CCATCTGA	-0.0639
CAAGCAAA	0.0691
CACACATC	-0.103
GTCGGACA	-0.0736
TGGAGACA	-0.0161
AGGATATA	0.152
GCTTTAGA	-0.15
CCAGTGTA	0.119
ACAGCATG	-0.0234
AATAGCCT	-0.0259
GGCGACCA	-0.255
GTAGAACA	-0.165
GGCTGTTA	-0.0126
AACTAATT	0.181
CGTCGTTA	-0.102

Reprinted from above for reference:
Sequence	PBM E-score
CCATCTGA	-0.0639
CAAGCAAA	0.0691

Next part:

Sequence	PBM E-score
GCTTTCTA	0.164
CACACAAG	0.0852
CAATGTTA	0.0439
CGGGACAC	-0.0433
AAAACTGG	-0.043
ACCTCGCC	-0.179
ACAGCACT	-0.0028
CGAAGCAC	0.0504
TATACATA	0.236
ATGGTGAC	-0.147
AGGGACTA	0.0328
CAGAACTC	0.0143
AATGATGG	0.228
AATTCCCG	0.0857
CAAGAATG	0.011
GATAACAC	0.165
AGGTATCC	0.0225
ACATACAC	0.118
GGAGGAAA	-0.107
GTGCTGCA	-0.0502
GCGTGCGA	-0.0562
GCTGACGA	0.181
CCCGGAGA	0.0171
CGTGAAAA	0.145
ATCAGGGC	-0.118

Given with each value named: part of the list above
ACAGCACT
  PBM E-score: -0.0028
CGAAGCAC
  PBM E-score: 0.0504

Additional results:

Sequence	PBM E-score
CTTCATCA	0.0543
CGATAGGC	-0.026
CACAAGGA	-0.0252
AATTGCGG	-0.0237
GTTCGAGA	-0.00774
ATAAAGCC	-0.084
ACTGGGGG	-0.425
AACTTCCT	0.0558
CAGTAGAA	0.0667
CGGGTGAC	-0.0551
GCGACGCC	-0.0013
AGAATATG	0.231
GCCGTCAC	0.0366
CTATTCTA	0.155
CGTTTACC	0.226
GATCCAAC	-0.0889
CTTACAAC	0.136
CTGAGCAG	-0.0991
AACGCCGC	0.137
CCCTATAG	-0.00306
GTAGTAAC	0.0222
ACAGAAAA	0.158

Source: the supplement of paper PMC3334620
